# According to the supplement of paper PMC8728848:
# The list shows a part of the results.
# Experiments:
# Test in all cases: glycan array binding signal (z-score within array); higher = stronger binding
# Conditions in all cases: glycan notation: IUPAC condensed, linker removed
# [1] = biological target: Fuc(a1-2)[GalNAc(a1-3)]Gal(b1-4)GlcNAc(b1-3)Gal(b1-4)GlcNAc
# Outline: (§1)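 From the Consortium for Functional Glycomics database, 3228 arrays were curated, keeping only those whose protein sequence was available. Binding is given as a within-array Z-score averaged across arrays sharing a protein sequence and across linkers. Negative Z-scores can be read as non-binding.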
# [2] = biological target: Fuc(a1-2)[GalNAc(a1-3)]Gal(b1-4)GlcNAc(b1-3)Gal(b1-4)GlcNAc(b1-3)Gal(b1-4)GlcNAc
# Outline: as §1
# [3] = biological target: Fuc(a1-2)[GalNAc(a1-3)]Gal(b1-4)[Fuc(a1-3)]GlcNAc
# Outline: as §1
# [4] = biological target: Fuc(a1-2)[GalNAc(a1-4)]Gal(b1-4)GlcNAc
# Outline: as §1
# [5] = biological target: Fuc(a1-2)[GalNAc(b1-3)]Gal
# Outline: as §1
# Fuc(a1-3)GlcNAc = biological target: Fuc(a1-3)GlcNAc
# Outline: as §1
# [6] = biological target: Fuc(a1-3)[Gal(b1-4)]Glc6S
# Outline: as §1
# [7] = biological target: Fuc(a1-3)[Gal(b1-4)]GlcNAc
# Outline: as §1
# [8] = biological target: Fuc(a1-3)[Gal(b1-4)]GlcNAc(b1-2)Man(a1-3)[Fuc(a1-3)[Gal(b1-4)]GlcNAc(b1-2)Man(a1-6)]Man(b1-4)GlcNAc(b1-4)GlcNAc
# Outline: as §1
# [9] = biological target: Fuc(a1-3)[Gal(b1-4)]GlcNAc(b1-3)Gal(b1-3)[Fuc(a1-4)]GlcNAc
# Outline: as §1
# [10] = biological target: Fuc(a1-3)[Gal(b1-4)]GlcNAc(b1-3)GalNAc
# Outline: as §1
# [11] = biological target: Fuc(a1-3)[Gal(b1-4)]GlcNAc(b1-4)Gal(b1-4)[Fuc(a1-3)]GlcNAc
# Outline: as §1
# [12] = biological target: Fuc(a1-3)[Gal(b1-4)]GlcNAc(b1-4)Gal(b1-4)[Fuc(a1-3)]GlcNAc(b1-4)Gal(b1-4)[Fuc(a1-3)]GlcNAc
# Outline: as §1
# [13] = biological target: Fuc(a1-3)[Gal(b1-4)]GlcNAc(b1-6)[Gal(b1-3)GlcNAc(b1-3)]Gal(b1-4)Glc
# Outline: as §1
# [14] = biological target: Fuc(a1-3)[Gal(b1-4)]GlcNAc6S
# Outline: as §1
# [15] = biological target: Fuc(a1-3)[Gal3S(b1-4)]GlcNAc
# Outline: as §1
# [16] = biological target: Fuc(a1-3)[Gal3S(b1-4)]GlcNAc6S
# Outline: as §1
# [17] = biological target: Fuc(a1-3)[GalNAc(b1-4)]GlcNAc
# Outline: as §1
# Fuc(a1-4)GlcNAc = biological target: Fuc(a1-4)GlcNAc
# Outline: as §1
# Fuc(b1-3)GlcNAc = biological target: Fuc(b1-3)GlcNAc
# Outline: as §1
# Gal(a1-2)Gal = biological target: Gal(a1-2)Gal
# Outline: as §1
# Gal(a1-3)Gal = biological target: Gal(a1-3)Gal
# Outline: as §1
# Gal(a1-3)Gal(b1-3)GlcNAc = biological target: Gal(a1-3)Gal(b1-3)GlcNAc
# Outline: as §1
# [18] = biological target: Gal(a1-3)Gal(b1-3)GlcNAc(b1-2)Man(a1-3)[Gal(a1-3)Gal(b1-3)GlcNAc(b1-2)Man(a1-6)]Man(b1-4)GlcNAc(b1-4)GlcNAc
# Outline: as §1
# [19] = biological target: Gal(a1-3)Gal(b1-3)[Fuc(a1-4)]GlcNAc(b1-2)Man(a1-3)[Gal(a1-3)Gal(b1-3)[Fuc(a1-4)]GlcNAc(b1-2)Man(a1-6)]Man(b1-4)GlcNAc(b1-4)GlcNAc
# Outline: as §1
# Gal(a1-3)Gal(b1-4)Glc = biological target: Gal(a1-3)Gal(b1-4)Glc
# Outline: as §1
# Gal(a1-3)Gal(b1-4)GlcNAc = biological target: Gal(a1-3)Gal(b1-4)GlcNAc
# Outline: as §1
# [20] = biological target: Gal(a1-3)Gal(b1-4)GlcNAc(b1-3)GalNAc
# Outline: as §1
# [21] = biological target: Gal(a1-3)Gal(b1-4)[Fuc(a1-3)]GlcNAc
# Outline: as §1
# [22] = biological target: Gal(a1-3)Gal(b1-4)[Fuc(a1-3)]GlcNAc(b1-2)Man(a1-3)[Gal(a1-3)Gal(b1-4)[Fuc(a1-3)]GlcNAc(b1-2)Man(a1-6)]Man(b1-4)GlcNAc(b1-4)GlcNAc
# Outline: as §1
# Gal(a1-3)GalNAc = biological target: Gal(a1-3)GalNAc
# Outline: as §1
# [23] = biological target: Gal(a1-3)[Gal(a1-4)]Gal(b1-4)GlcNAc
# Outline: as §1
# [24] = biological target: Gal(a1-4)Gal(b1-3)GlcNAc(b1-2)Man(a1-3)[Gal(a1-4)Gal(b1-3)GlcNAc(b1-2)Man(a1-6)]Man(b1-4)GlcNAc(b1-4)GlcNAc
# Outline: as §1
# Gal(a1-4)Gal(b1-4)Glc = biological target: Gal(a1-4)Gal(b1-4)Glc
# Outline: as §1
# Gal(a1-4)Gal(b1-4)GlcNAc = biological target: Gal(a1-4)Gal(b1-4)GlcNAc
# Outline: as §1
# [25] = biological target: Gal(a1-4)Gal(b1-4)GlcNAc(b1-2)Man(a1-3)[Gal(a1-4)Gal(b1-4)GlcNAc(b1-2)Man(a1-6)]Man(b1-4)GlcNAc(b1-4)GlcNAc
# Outline: as §1
# [26] = biological target: Gal(a1-4)Gal(b1-4)GlcNAc(b1-3)Gal(b1-4)Glc
# Outline: as §1
# Gal(a1-4)GlcNAc = biological target: Gal(a1-4)GlcNAc
# Outline: as §1
# Gal(a1-6)Glc = biological target: Gal(a1-6)Glc
# Outline: as §1
# Gal(b1-2)Gal = biological target: Gal(b1-2)Gal
# Outline: as §1
# Gal(b1-3)Gal = biological target: Gal(b1-3)Gal
# Outline: as §1
# Gal(b1-3)Gal(b1-4)GlcNAc = biological target: Gal(b1-3)Gal(b1-4)GlcNAc
# Outline: as §1
# [27] = biological target: Gal(b1-3)Gal(b1-4)GlcNAc(b1-2)Man(a1-3)[Gal(b1-3)Gal(b1-4)GlcNAc(b1-2)Man(a1-6)]Man(b1-4)GlcNAc(b1-4)GlcNAc
# Outline: as §1
# Gal(b1-3)GalNAc = biological target: Gal(b1-3)GalNAc
# Outline: as §1
# [28] = biological target: Gal(b1-3)GalNAc(a1-3)[Fuc(a1-2)]Gal(b1-4)Glc
# Outline: as §1
binder,measurement,setting,value
"CREG (Mus musculus), O88668 (protein) MAARAPELARSLLAALLAPALVALLVSPASGRGGRDHGDWDVDRRLPPLPPREDGPRVARFVTHVSDWGSLATISTIKEVRGWPFADIISISDGPPGEGTGEPYMYLSPLQQAVSDLQENPEATLTMSLAQTVYCRNHGFDPQSPLCVHIMMSGTVTKVNKTEEDYARDSLFVRHPEMKHWPSSHNWFFAKLKISRIWVLDYFGGPKVVTPEEYFNVTLQ",glycan array binding signal (z-score),[1],0.281
same,glycan array binding signal (z-score),[2],0.705
same,glycan array binding signal (z-score),[3],2.02
same,glycan array binding signal (z-score),[4],0.128
same,glycan array binding signal (z-score),[5],-0.881
same,glycan array binding signal (z-score),Fuc(a1-3)GlcNAc,0.475
same,glycan array binding signal (z-score),[6],-0.889
same,glycan array binding signal (z-score),[7],-0.783
same,glycan array binding signal (z-score),[8],0.61
same,glycan array binding signal (z-score),[9],-0.359
same,glycan array binding signal (z-score),[10],1.17
same,glycan array binding signal (z-score),[11],2.95
same,glycan array binding signal (z-score),[12],-0.416
same,glycan array binding signal (z-score),[13],-0.563
same,glycan array binding signal (z-score),[14],1.21
same,glycan array binding signal (z-score),[15],0.235
same,glycan array binding signal (z-score),[16],-0.061
same,glycan array binding signal (z-score),[17],-1.19
same,glycan array binding signal (z-score),Fuc(a1-4)GlcNAc,-0.873
same,glycan array binding signal (z-score),Fuc(b1-3)GlcNAc,-1.22
same,glycan array binding signal (z-score),Gal(a1-2)Gal,-0.293
same,glycan array binding signal (z-score),Gal(a1-3)Gal,-0.874
same,glycan array binding signal (z-score),Gal(a1-3)Gal(b1-3)GlcNAc,-0.114
same,glycan array binding signal (z-score),[18],3.49
same,glycan array binding signal (z-score),[19],0.976
same,glycan array binding signal (z-score),Gal(a1-3)Gal(b1-4)Glc,2.09
same,glycan array binding signal (z-score),Gal(a1-3)Gal(b1-4)GlcNAc,-1.02
same,glycan array binding signal (z-score),[20],-0.755
same,glycan array binding signal (z-score),[21],-0.438
same,glycan array binding signal (z-score),[22],-1.09
same,glycan array binding signal (z-score),Gal(a1-3)GalNAc,-0.285
same,glycan array binding signal (z-score),[23],-0.517
same,glycan array binding signal (z-score),[24],2.08
same,glycan array binding signal (z-score),Gal(a1-4)Gal(b1-4)Glc,-0.943
same,glycan array binding signal (z-score),Gal(a1-4)Gal(b1-4)GlcNAc,-0.069
same,glycan array binding signal (z-score),[25],-0.317
same,glycan array binding signal (z-score),[26],0.004
same,glycan array binding signal (z-score),Gal(a1-4)GlcNAc,-0.685
same,glycan array binding signal (z-score),Gal(a1-6)Glc,0.006
same,glycan array binding signal (z-score),Gal(b1-2)Gal,0.525
same,glycan array binding signal (z-score),Gal(b1-3)Gal,0.033
same,glycan array binding signal (z-score),Gal(b1-3)Gal(b1-4)GlcNAc,-1.32
same,glycan array binding signal (z-score),[27],0.416
same,glycan array binding signal (z-score),Gal(b1-3)GalNAc,-0.036
same,glycan array binding signal (z-score),[28],0.017

# Copied from the entries so far (three entries):
binder,measurement,setting,value
"CREG (Mus musculus), O88668 (protein) MAARAPELARSLLAALLAPALVALLVSPASGRGGRDHGDWDVDRRLPPLPPREDGPRVARFVTHVSDWGSLATISTIKEVRGWPFADIISISDGPPGEGTGEPYMYLSPLQQAVSDLQENPEATLTMSLAQTVYCRNHGFDPQSPLCVHIMMSGTVTKVNKTEEDYARDSLFVRHPEMKHWPSSHNWFFAKLKISRIWVLDYFGGPKVVTPEEYFNVTLQ",glycan array binding signal (z-score),Gal(a1-2)Gal,-0.293
same,glycan array binding signal (z-score),Gal(a1-3)Gal,-0.874
same,glycan array binding signal (z-score),Gal(a1-3)Gal(b1-3)GlcNAc,-0.114
